For at least one compound, name, drawing or mass did not settle the structure.
System: Thy1-αSyn (ASO) mice
Assay: Motor function testing (beam traversal, pole descent, adhesive removal, hindlimb clasping reflex)
Format: in vivo, mouse
Details: SCFA-fed ASO animals, oral minocycline 2 g/L in drinking water; tested at 12-13 weeks

SMILES: CN(C)c1ccc(O)c2c1C[C@H]1C[C@H]3[C@H](N(C)C)C(O)=C(C(N)=O)C(=O)[C@@]3(O)C(O)=C1C2=O [minocycline, Minocycline]
- motor function: improve motor function

From patent publication US12329786B2, “Regulate gut microbiota to treat neurodegenerative disorders” (California Institute of Technology, priority 2016, dated 2025)
